One data set has as its target SOX2 (human) (UniProt P48431). The experiment in a line: EMSA. As to conditions: EMSA: 10 mM Tris pH 7.5, 50 mM KCl, 1 mM DTT, 6 mM MgCl2, 60 ng/uL poly dIdC, 65 ng BSA, 125 ng AP2-EXP or PbAP2-Sp, 40-150 fmol probe, 15 min protein + compound, commercial protein, residues 1-317, label: 5' biotin on forward strand. A general note: In EMSA bound probe runs differently from free probe, usually more slowly.

Amino acid sequences for entries named in this document (tags omitted). A change or cut given only in a name is not applied to a line headed by its entry. Residues count along the entry.
UniProt P48431: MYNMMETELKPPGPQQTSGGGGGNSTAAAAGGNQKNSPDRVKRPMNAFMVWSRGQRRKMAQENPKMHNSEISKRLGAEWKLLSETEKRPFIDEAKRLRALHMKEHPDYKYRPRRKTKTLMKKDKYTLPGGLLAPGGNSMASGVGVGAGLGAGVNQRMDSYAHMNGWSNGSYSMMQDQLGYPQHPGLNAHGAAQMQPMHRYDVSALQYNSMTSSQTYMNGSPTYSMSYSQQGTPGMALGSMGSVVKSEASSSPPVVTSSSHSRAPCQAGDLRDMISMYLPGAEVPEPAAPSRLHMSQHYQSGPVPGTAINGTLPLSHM
UniProt O80337, 147-205: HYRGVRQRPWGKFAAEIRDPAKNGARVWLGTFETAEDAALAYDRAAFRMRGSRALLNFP

For data set [1], the target named is AtERF1 AP2/ERF domain (Arabidopsis thaliana) (UniProt O80337). The experiment in a line: EMSA. The note with it: EMSA: 10 mM Tris pH 7.5, 50 mM KCl, 1 mM DTT, 6 mM MgCl2, 60 ng/uL poly dIdC, 65 ng BSA, 125 ng AP2-EXP or PbAP2-Sp, 40-150 fmol probe, 15 min protein + compound, recombinant protein, label: 5' biotin on forward strand.

No signal at the amounts used counts as a negative. Construct, isoform or probe ends are uncertain for at least one entry. At least one verdict was read from the data and is not stated in words by the source.

Take “CGGAGAAACTTCTAGAACAATGGTGAAGACGGGGATC (double strand) [SOX2 gel shift probe]”: the binding result with SOX2 (human) (300 uM Compound A) is listed as “no binding”; in the data set with SOX2 (human) (300 uM Compound B) it was “binds”; with SOX2 (human) (300 uM Compound C), “binds”; with SOX2 (human), “binds”.

For the sequence “TTTAACTTTAATTATGAATATGAGGCGGCGGGTTCGTGATCAAC (double strand) [AtERF1 gel shift probe]”, the binding result in data set [1] (300 uM Compound I) is recorded as “no binding”; in data set [1] it was “binds”.

(Values after publication PMC9591056, “Inhibitors of ApiAP2 protein DNA binding exhibit multistage activity against Plasmodium parasites” (PLOS Pathogens, 2022).)
